{"source": "patent US20080031968A1", "about": "“Methods for increasing cellular energy expenditure” (priority 2005, published 2008)", "system": "HSMM", "assay": "cAMP levels in human skeletal muscle myoblasts", "format": "cell-based", "conditions": "1 mM IBMX, 30 minutes", "note": "For at least one compound, name, drawing or mass did not settle the structure."}
{"smiles": "C[C@H](CCC(=O)O)[C@H]1CC[C@H]2[C@@H]3CC[C@@H]4C[C@H](O)CC[C@]4(C)[C@H]3CC[C@]12C", "note": "[LCA, Lithocholic acid]", "values": [{"measurement": "cAMP levels", "value": "did not increase"}]}
